# Source: publication PMC7819943, “Rice protein-binding microarrays: a tool to detect cis-acting elements near promoter regions in rice”
# The list shows a part of the results.
# Biological target: T1, OsSMF1 (Oryza sativa, UniProt Q6ZLB0 1-436)
# T1 sequence: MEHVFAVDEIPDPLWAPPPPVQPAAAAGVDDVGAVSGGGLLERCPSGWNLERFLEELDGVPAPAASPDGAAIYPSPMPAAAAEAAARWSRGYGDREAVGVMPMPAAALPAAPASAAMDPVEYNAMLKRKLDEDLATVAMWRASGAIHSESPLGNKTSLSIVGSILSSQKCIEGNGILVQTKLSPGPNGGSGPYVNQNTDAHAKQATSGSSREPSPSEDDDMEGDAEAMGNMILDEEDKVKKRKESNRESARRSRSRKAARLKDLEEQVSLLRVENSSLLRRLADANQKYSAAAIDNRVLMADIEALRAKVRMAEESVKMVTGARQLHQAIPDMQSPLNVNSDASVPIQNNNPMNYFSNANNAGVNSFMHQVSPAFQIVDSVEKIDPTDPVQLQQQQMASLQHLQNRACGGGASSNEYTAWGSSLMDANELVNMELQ
# Assay: protein-binding microarray (RPBM); PBS, 2% BSA, 51.3 ng/ul salmon testes DNA, 50 uM zinc acetate, 200 nM TF, 25 C, 1 h; high values mean tight binding
# Details: protein: recombinant; tags: N-terminal polyhistidine and DsRed monomer fusion (pET32a); chain copies: 2; label: CyDye5-dUTP incorporated in the synthesized complementary strand; 3' TTTTT single-stranded linker to array surface; dsDNA, one strand shown
# In short: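 For the binding signal, per-feature fluorescence intensity was read in arbitrary units on an Axon 4000B scanner. Before scanning, a 2% BSA-blocked custom Agilent array made double-stranded with Cy5-dUTP was washed after 1 h at 25 °C with 200 nM protein and 50 µM zinc acetate. The proteins were Ni–NTA-purified transcription factors with N-terminal polyhistidine and DsRed fusions, expressed in E. coli BL21-CodonPlus.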
row,Sequence,binding signal
1,CCAATCGATCCTTGTGCTGCTGCTGCTGCTGCGCTCGACGCGGAGTCACCTAGTGCAG,4060 fluorescence intensity (a.u.)
2,TGGGTTGAAGCCCTCCCTGTTTGAGATCTCATTTTCCTTTCGGAGTCACCTAGTGCAG,9910 fluorescence intensity (a.u.)
3,CGGGCCCGCGCTGGATGCGGCGCATCAGGTGGGTGGTGAACGGAGTCACCTAGTGCAG,3150 fluorescence intensity (a.u.)
4,TGTGAATTGCATCAACCGAAAAGTAGATATTGGAGTATTTCGGAGTCACCTAGTGCAG,65500 fluorescence intensity (a.u.)
5,GGCTGACGGCTGGTGAGAAGCCACGTCAGCATTTAATTCCCGGAGTCACCTAGTGCAG,13100 fluorescence intensity (a.u.)
6,CTCCTGACTCCTCCTCGGTTCCTCTTCCTCTCGAGCCCTTCGGAGTCACCTAGTGCAG,3600 fluorescence intensity (a.u.)
7,GGTGAGGGCACCAAAGTGGCTATTTGTCACCTTAGCCTTGCGGAGTCACCTAGTGCAG,3480 fluorescence intensity (a.u.)
8,TCAAACAAGCCATGTAGGCGCCACGTTAGCCAAAACCGCTCGGAGTCACCTAGTGCAG,8620 fluorescence intensity (a.u.)
9,TGCTAACTAGGATGCCACGTTAGCGAAACCACCCATATATCGGAGTCACCTAGTGCAG,5850 fluorescence intensity (a.u.)
10,TTGATAGTTCGGATTTGGGGTTTGGATCCGGGAGTTGCCGCGGAGTCACCTAGTGCAG,3270 fluorescence intensity (a.u.)
11,TGGTGGTGTAAGCCTGGACGCCGCGCCTAAATCCAGAGCGCGGAGTCACCTAGTGCAG,34600 fluorescence intensity (a.u.)
12,ACCCTAGCCTAGTTTGCCACGACTTGGTCCCACCTGGCAGCGGAGTCACCTAGTGCAG,5480 fluorescence intensity (a.u.)
13,GGGGTGAGGTGAGGTTACCACGTCGGCGACGGTGAGGAAGCGGAGTCACCTAGTGCAG,6110 fluorescence intensity (a.u.)
14,GAGGGAATATTCCCTATTCCGGGCCGCCCTATCCACCCTTCGGAGTCACCTAGTGCAG,3210 fluorescence intensity (a.u.)
15,AGCCCGATACTTTTGTTCGACGTCGGTCGCCCGAGGCAGACGGAGTCACCTAGTGCAG,3220 fluorescence intensity (a.u.)
16,TTGATTCAAATGAAGCCTAAGTATCTACTTATAGAAACTTCGGAGTCACCTAGTGCAG,17600 fluorescence intensity (a.u.)
17,AGTCCCCTGACATGAGAGAGGTGTGCATGTCCAAAACATCCGGAGTCACCTAGTGCAG,3320 fluorescence intensity (a.u.)
18,GCGGGCGCCACGCCACGCCACGCCCACCCAAACAGCTTCGCGGAGTCACCTAGTGCAG,7160 fluorescence intensity (a.u.)
19,AGACATCAGATTCCTGTCAAGAGAGCGGCCGATGATGCACCGGAGTCACCTAGTGCAG,3460 fluorescence intensity (a.u.)
20,CAACGCCGAGGTGTGGATCACCTCGTAGATATGGAGGCGGCGGAGTCACCTAGTGCAG,22800 fluorescence intensity (a.u.)
21,TGATGTGGTGCCTACGTGGCTTGTTTGACTAGGTCTCCGTCGGAGTCACCTAGTGCAG,17700 fluorescence intensity (a.u.)

# Look-ups from the list.
# GGGGTGAGGTGAGGTTACCACGTCGGCGACGGTGAGGAAGCGGAGTCACCTAGTGCAG | binding signal: 6110 fluorescence intensity (a.u.)
# TCAAACAAGCCATGTAGGCGCCACGTTAGCCAAAACCGCTCGGAGTCACCTAGTGCAG | binding signal: 8620 fluorescence intensity (a.u.)
# CTCCTGACTCCTCCTCGGTTCCTCTTCCTCTCGAGCCCTTCGGAGTCACCTAGTGCAG | binding signal: 3600 fluorescence intensity (a.u.)

# Remaining list, next part

row,Sequence,binding signal
1,GCCACTCCCTCCCTCATCTCCCCTGTGCCGTGACGTCGTTCGGAGTCACCTAGTGCAG,3620 fluorescence intensity (a.u.)
2,GTTTACCGTACTAGAGGTGCTGAGTGTGCCAGCTTGCTGCCGGAGTCACCTAGTGCAG,4090 fluorescence intensity (a.u.)
3,CTGAACCTCTCAGTTTGAGTCACTTTCATAGCATCATTGTCGGAGTCACCTAGTGCAG,4450 fluorescence intensity (a.u.)
4,AGATAGTGGTGGTGGTCTGTGCATCGTTGACTTGATCATGCGGAGTCACCTAGTGCAG,3360 fluorescence intensity (a.u.)
5,ACAAAACTAGCCGAACAATGACACGTCGCTTTCGTTTAGTCGGAGTCACCTAGTGCAG,8240 fluorescence intensity (a.u.)
6,GTGTCATTTCATTCACTGGTCGGCTATATCTGGGCATATGCGGAGTCACCTAGTGCAG,53800 fluorescence intensity (a.u.)
7,GGAACTGATTGTATGCCTTCTGACTGTATAAACTATTCATCGGAGTCACCTAGTGCAG,4660 fluorescence intensity (a.u.)
8,TGGTTTATGTGACGTTTGCGTGGCTTCTTTGATTAGGTATCGGAGTCACCTAGTGCAG,6330 fluorescence intensity (a.u.)
9,GAGCTTTCTGATTTGCCACGACGACGTATCGAACGGCCAGCGGAGTCACCTAGTGCAG,4990 fluorescence intensity (a.u.)
10,CGCGACATCGTGACGGCGCGCGTCGCCGCCGACCCCGCCGCGGAGTCACCTAGTGCAG,36200 fluorescence intensity (a.u.)
11,AGACTGAGCACACACCCACACCTGCCACGTGTCCCTGGTTCGGAGTCACCTAGTGCAG,31900 fluorescence intensity (a.u.)
12,TCGCTTCCCCGACGCCAATCCACGACACCTCTCGTGCTCCCGGAGTCACCTAGTGCAG,3820 fluorescence intensity (a.u.)
13,ATCCTCACGAAACAAACGCATAAGGTGAGCGATGAGTCATCGGAGTCACCTAGTGCAG,5700 fluorescence intensity (a.u.)
14,ATAAACAAGTACAAGAGGAGGGGACAGGGGTGCGGTGTGTCGGAGTCACCTAGTGCAG,4170 fluorescence intensity (a.u.)
15,GGGCGGTTTTCTGCAAAAGTGCATCCAACAGGTGAGAGAGCGGAGTCACCTAGTGCAG,3640 fluorescence intensity (a.u.)
16,ACCATGGCTTTGAATTCTTTTACTGCACGTGTACAGATGTCGGAGTCACCTAGTGCAG,3960 fluorescence intensity (a.u.)
17,GTAGGATGTTGCCCTGCAACTCACGTCACTTCTCATAAGACGGAGTCACCTAGTGCAG,4280 fluorescence intensity (a.u.)
18,ACCGCAGATGTTGTAAGCGAGCCAATGTTGTCATGTGGGCCGGAGTCACCTAGTGCAG,3870 fluorescence intensity (a.u.)
19,AAAGGCCACGCCACGCCACGCAACCGTCGTCGCGCTCCATCGGAGTCACCTAGTGCAG,16400 fluorescence intensity (a.u.)
20,CATAGGTTTCGTCCGACGTGTCGTTTTGGCTCAAGCGTCACGGAGTCACCTAGTGCAG,12300 fluorescence intensity (a.u.)
21,GCCCATCCGAACACGGCCTGACAGGCTGTGATGACGGCCTCGGAGTCACCTAGTGCAG,3680 fluorescence intensity (a.u.)
